Results: publication PMC8867601, “The TERB1 MYB domain suppresses telomere erosion in meiotic prophase I”
Where two headings read alike, the source gives them in different places. No constants are given. Whether binding was seen depends on the method and setting. In cells and extracts the contact can be indirect. Some results given as binding are weak or reduced against the parent protein; the word gives no strength.

By UniProt entry, the sequences of proteins in these tests, tags left out.
UniProt Q9CW03: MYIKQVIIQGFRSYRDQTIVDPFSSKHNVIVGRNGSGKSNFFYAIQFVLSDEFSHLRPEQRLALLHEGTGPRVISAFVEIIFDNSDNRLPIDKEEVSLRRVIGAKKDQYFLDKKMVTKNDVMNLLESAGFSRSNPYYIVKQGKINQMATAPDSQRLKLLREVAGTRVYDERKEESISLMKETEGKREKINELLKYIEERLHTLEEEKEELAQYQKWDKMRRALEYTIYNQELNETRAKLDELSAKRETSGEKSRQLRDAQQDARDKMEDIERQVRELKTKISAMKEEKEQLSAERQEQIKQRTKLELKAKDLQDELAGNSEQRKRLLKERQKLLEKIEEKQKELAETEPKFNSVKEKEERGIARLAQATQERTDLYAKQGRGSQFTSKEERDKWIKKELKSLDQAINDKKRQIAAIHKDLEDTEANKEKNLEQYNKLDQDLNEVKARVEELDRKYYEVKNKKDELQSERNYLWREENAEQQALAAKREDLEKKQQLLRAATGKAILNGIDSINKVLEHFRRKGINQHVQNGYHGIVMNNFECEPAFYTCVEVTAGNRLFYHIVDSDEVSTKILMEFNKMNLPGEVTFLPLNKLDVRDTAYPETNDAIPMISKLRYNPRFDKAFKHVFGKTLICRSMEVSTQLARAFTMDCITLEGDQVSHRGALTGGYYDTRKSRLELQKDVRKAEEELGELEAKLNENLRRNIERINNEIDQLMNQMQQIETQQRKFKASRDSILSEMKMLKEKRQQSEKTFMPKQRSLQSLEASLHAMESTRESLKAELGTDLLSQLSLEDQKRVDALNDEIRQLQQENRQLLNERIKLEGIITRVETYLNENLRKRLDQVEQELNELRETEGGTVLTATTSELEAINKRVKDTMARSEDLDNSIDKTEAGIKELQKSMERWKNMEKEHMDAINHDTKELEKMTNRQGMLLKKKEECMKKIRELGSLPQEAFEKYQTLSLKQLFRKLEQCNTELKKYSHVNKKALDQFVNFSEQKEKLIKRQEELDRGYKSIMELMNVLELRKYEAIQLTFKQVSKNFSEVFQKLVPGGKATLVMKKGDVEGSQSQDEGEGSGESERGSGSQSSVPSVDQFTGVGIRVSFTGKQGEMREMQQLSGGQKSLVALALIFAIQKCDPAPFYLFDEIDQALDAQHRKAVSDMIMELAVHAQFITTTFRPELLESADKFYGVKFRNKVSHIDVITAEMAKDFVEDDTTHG

T1: TERB1 (wild-type protein, mouse testis) (mouse (endogenous in testis)) (UniProt Q8C0V1)
T1 sequence: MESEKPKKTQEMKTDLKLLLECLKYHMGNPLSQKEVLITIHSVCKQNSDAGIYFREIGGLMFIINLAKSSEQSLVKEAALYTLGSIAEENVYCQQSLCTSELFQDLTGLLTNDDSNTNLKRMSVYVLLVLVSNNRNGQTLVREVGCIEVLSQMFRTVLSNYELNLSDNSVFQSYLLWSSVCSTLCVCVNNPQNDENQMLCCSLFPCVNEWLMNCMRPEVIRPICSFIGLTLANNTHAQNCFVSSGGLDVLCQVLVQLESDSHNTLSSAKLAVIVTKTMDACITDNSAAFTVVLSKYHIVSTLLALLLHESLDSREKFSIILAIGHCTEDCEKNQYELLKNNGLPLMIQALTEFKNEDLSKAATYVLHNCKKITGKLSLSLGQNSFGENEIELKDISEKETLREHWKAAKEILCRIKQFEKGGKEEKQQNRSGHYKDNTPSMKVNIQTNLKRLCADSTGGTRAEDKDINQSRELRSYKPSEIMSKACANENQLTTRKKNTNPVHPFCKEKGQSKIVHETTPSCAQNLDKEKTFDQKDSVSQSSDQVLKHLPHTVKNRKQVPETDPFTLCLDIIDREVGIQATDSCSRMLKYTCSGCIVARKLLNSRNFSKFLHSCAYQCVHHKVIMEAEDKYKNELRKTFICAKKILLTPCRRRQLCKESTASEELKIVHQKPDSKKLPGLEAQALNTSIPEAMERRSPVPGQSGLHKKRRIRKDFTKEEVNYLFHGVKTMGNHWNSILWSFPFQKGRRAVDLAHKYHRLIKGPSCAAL

T2: TERB1^ΔMYB (truncated TERB1, 1-703 amino acids, lacking the C-terminal MYB domain) (mouse (endogenous in testis)) (UniProt Q8C0V1)
T2 sequence: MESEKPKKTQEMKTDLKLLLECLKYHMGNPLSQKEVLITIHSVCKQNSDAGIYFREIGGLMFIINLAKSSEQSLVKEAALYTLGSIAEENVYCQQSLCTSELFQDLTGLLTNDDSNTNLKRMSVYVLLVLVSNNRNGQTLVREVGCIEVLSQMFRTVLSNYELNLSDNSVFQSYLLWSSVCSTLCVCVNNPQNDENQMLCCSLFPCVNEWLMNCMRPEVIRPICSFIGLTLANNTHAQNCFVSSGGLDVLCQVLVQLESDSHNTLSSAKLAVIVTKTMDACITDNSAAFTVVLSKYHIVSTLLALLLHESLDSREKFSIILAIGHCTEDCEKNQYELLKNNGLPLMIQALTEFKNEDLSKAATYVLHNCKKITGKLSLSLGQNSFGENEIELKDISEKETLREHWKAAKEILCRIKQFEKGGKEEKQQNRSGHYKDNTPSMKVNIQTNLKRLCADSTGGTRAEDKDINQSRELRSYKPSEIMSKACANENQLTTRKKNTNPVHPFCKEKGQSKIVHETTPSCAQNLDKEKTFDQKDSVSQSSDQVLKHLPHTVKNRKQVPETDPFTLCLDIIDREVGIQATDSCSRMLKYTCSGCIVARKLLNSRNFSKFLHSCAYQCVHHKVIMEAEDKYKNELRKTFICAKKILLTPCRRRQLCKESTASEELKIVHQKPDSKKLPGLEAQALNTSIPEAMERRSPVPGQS


What was measured:
Test in all cases: co-IP; anti-TERB1 antibody (or control IgG) on Dynabeads protein A; high-salt (400 mM KCl) extract of the pellet of WT or Terb1^ΔMYB/ΔMYB testes; 6 h at 4°C; washed with high-salt buffer; western blot
[1] = molecular target: T1, TERB1 (wild-type protein, mouse testis) (mouse (endogenous in testis))
[2] = molecular target: T2, TERB1^ΔMYB (truncated TERB1, 1-703 amino acids, lacking the C-terminal MYB domain) (mouse (endogenous in testis))
[3] = molecular target: T1, TERB1 (wild-type protein, mouse testis) (mouse (endogenous in testis)); remark: listed apart in the source

Molecule	binding [1]	binding [2]	binding [3]
SMC3 (from UniProt Q9CW03 1-1217)	binds	–	–
TERB2 (protein, UniProt Q9D494 1-218) MFQGQRGWFCGSVSQDLRQIWEDEGGMVSDVKAADFLFSCDASHPDTLRIYQSLEYIEDNATVFHAYYLAAIANTEMKNSVALGHFVLPPACLQKEIRRKIGSFIWEQDEKFQIEKHDRMASSDKENIRPTPEHKQELSKSAEHHLTRTPVIEKQMCFPLHSYPVNNMVTGYISIDALEKFLGELHDFTPGSSGYLAYHIQDEINMSAIKNKLRRKLS	–	binds	binds
MAJIN (protein, UniProt Q9D992 1-256) MSLKPFTYPFPETRFLHAGPNVYKFKIRYGNSIRGEEIEDKEVIVQELEDSIRAVLANMDSLQPFVTEHFIVFPYKSKWERVSHLKFKHGESILTPYPFVFTLYIEMKWFAEDLPSGKPADDIPLELVLAETEAEEATMRKWKRKLMEEPSSPSRQGPHRAKMETSSEASSNKKPLKESKRSTDEEAQQEYQDTPASNAIAVKEQDAALGHGLQGLVVPPLQHSSPPPPKEPGARGFLGFLSALFPFRYFFKKSGQ	–	binds	binds
SYCP3 (protein, UniProt P70281 1-254) MLRGCGDSDSSPEPLSKHLKMVPGGRKHSGKSGKPPLVDQPKKAFDFEKDDKDLSGSEEDVADEKAPVIDKHGKKRSAGIIEDVGGEVQNMLEKFGADINKALLAKRKRIEMYTKASFKASNQKIEQIWKTQQEEIQKLNNEYSQQFMNVLQQWELDIQKFEEQGEKLSNLFRQQQKIFQQSRIVQSQRMFAMKQIHEQFIKSLEDVEKNNDNLFTGTQSELKKEMAMLQKKVMMETQQQEMANVRKSLQSMLF	–	–	binds
